This note sets out measurements from PMC10669615.

Sequences of proteins named here, by UniProt entry; tags and fusion partners are left off.
UniProt P00520: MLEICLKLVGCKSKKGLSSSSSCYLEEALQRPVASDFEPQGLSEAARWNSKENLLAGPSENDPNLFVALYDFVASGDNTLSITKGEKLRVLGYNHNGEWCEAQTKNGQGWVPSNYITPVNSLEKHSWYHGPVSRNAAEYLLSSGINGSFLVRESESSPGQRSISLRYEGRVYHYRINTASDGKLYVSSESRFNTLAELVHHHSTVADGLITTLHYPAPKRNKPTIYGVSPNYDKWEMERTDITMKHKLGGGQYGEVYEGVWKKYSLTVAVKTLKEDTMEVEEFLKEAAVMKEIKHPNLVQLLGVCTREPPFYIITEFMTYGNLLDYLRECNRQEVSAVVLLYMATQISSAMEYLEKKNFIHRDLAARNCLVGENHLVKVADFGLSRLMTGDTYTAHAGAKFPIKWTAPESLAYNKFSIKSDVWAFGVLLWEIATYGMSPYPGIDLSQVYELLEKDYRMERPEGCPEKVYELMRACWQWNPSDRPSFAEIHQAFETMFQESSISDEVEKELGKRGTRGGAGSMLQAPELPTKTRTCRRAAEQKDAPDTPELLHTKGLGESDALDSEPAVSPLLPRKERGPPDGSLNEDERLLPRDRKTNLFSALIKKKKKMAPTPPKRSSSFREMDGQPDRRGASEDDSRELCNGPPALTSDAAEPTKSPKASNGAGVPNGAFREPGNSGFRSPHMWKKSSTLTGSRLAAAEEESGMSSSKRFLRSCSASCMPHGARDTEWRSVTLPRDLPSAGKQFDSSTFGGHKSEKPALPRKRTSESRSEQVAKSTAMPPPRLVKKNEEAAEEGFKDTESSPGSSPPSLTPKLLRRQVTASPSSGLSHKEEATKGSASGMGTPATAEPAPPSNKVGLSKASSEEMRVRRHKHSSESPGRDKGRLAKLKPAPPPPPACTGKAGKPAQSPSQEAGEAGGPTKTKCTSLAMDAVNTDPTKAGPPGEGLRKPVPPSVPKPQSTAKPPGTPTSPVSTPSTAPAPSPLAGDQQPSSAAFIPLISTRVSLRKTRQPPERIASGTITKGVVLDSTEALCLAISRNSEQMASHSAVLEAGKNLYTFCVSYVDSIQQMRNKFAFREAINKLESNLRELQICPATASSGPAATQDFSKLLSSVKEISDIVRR

One assay addresses T1, FLAG-tagged WT MFN2 (UniProt Q80U63).
T1 sequence: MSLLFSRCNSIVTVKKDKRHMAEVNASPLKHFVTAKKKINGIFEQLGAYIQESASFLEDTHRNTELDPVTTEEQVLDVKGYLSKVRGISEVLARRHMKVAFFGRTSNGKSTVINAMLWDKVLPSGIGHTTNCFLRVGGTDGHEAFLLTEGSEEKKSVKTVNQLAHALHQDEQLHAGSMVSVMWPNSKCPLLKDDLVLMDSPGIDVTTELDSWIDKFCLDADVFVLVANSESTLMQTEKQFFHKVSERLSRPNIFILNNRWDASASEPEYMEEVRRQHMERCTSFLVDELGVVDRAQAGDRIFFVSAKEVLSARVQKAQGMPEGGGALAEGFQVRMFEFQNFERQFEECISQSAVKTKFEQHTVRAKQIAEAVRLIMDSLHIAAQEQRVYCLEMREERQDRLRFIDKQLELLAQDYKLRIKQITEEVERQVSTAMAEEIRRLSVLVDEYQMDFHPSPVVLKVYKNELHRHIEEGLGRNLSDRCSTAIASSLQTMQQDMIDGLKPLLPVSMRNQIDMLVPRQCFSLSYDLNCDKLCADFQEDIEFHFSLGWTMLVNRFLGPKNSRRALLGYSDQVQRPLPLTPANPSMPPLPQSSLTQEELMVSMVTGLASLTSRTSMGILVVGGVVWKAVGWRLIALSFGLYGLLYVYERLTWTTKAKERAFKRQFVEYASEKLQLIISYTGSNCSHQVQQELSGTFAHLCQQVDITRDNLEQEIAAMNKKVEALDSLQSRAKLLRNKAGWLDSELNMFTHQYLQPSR
The experiment in a line: co-IP; MFN1/2 DKO MEF cells stably expressing FLAG-MFN2, treated with tunicamycin with or without imatinib; non-denaturing lysis buffer; immunoprecipitation with anti-FLAG agarose beads; Western blot for endogenous c-Abl. For orientation: A western blot detects proteins with antibodies after separation by electrophoresis.

Assay [1] addresses T2, mitofusin 2 (endogenous) (mouse (endogenous in MEF)) (UniProt Q80U63).
T2 sequence: T1 sequence
The experiment in a line: co-IP; endogenous proteins from MEF cells treated with tunicamycin with or without imatinib; non-denaturing lysis buffer (20 mM Tris, 137 mM NaCl, 1 mM EDTA, 1% NP-40); immunoprecipitation with anti-c-Abl or with anti-MFN2, complexes isolated with protein G Sepharose; Western blot for the other protein.

Assay [2] has as its target c-Abl tyrosine kinase (endogenous) (mouse (endogenous in MEF)) (UniProt P00520). Described as above.

No constants are given. Whether binding was seen depends on the method and setting. Binding seen in cells or lysates may run through a third protein. Some entries that bind do so weakly or less than the wild type. Tags and fused reporters may be left off the sequences shown.

As to “c-Abl tyrosine kinase (endogenous) (from UniProt P00520 1-1123) (enzyme)”, the binding entry (with FLAG-tagged WT MFN2; in assay [1]) was “binds” each time.

B1: mitofusin 2 (endogenous) (protein, UniProt Q80U63 1-757)
chain: T1 sequence
For the molecule B1, the binding result in assay [2] is reported as “binds”.
